Experimental data published in patent US20050272653A1.
These are yes or no findings as the source states them, for the method shown. Some results given as binding are weak or reduced against the parent protein; the word gives no strength. For part of these data: Tags and fused reporters may be left off the sequences shown.

Sequences of proteins named here, by UniProt entry; tags and fusion partners are left off.
UniProt P27037: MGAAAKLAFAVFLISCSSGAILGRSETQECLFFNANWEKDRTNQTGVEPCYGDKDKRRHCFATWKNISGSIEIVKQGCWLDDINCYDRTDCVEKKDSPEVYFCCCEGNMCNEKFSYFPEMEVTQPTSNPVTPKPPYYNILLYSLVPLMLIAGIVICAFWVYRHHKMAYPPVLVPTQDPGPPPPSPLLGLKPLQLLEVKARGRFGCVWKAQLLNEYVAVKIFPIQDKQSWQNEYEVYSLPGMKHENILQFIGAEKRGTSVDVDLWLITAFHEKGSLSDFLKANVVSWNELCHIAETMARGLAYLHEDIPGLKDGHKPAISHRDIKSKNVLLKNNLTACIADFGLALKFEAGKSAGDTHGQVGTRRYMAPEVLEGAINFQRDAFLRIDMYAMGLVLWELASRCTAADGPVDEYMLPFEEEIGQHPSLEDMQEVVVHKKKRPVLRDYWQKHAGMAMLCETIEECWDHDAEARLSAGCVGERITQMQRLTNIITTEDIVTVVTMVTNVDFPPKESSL

Experiments:
mature BMP-3 (human) [1] = biological target: T1, mature BMP-3 (human) (UniProt P12645); assay: immunoprecipitation on protein A beads, western blot (FIG. 11 legend)
T1 sequence: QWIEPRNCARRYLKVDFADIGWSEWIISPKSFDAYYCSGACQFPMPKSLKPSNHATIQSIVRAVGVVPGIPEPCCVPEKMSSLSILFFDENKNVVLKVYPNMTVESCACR

mature BMP-3 (human) [2] = biological target: T1, mature BMP-3 (human); assay: BiaCore CM5 chip, BMP3 pro-MuIgG2a amine coupled, mature BMP-3 flowed over
mature BMP-3 (human) [3] = biological target: T1, mature BMP-3 (human); assay: BiaCore CM5 chip, BMP3 pro-MuIgG2a amine coupled, mature BMP-3 flowed over (FIG. 12 legend)
mature BMP-3 (human) [4] = biological target: T1, mature BMP-3 (human); assay: immunoprecipitation on protein A beads from conditioned media, western blot with anti-mature BMP-3 monoclonal antibody
Activin Receptor IIa [5] = biological target: Activin Receptor IIa (UniProt P27037); assay: BiaCore CM5 chip, ActRIIa amine coupled, mature BMP-3 injected at 200 µg/ml
Activin Receptor IIa [6] = biological target: Activin Receptor IIa (UniProt P27037); assay: BiaCore CM5 chip, ActRIIa amine coupled, mature BMP-3 injected at 200 µg/ml (FIG. 13 legend)

Measured: binding

B1: BMP3A propeptide-Murine IgG2a peptide Fc fusion protein (Fc fusion, not shown: a dimerising Fc or GST)
chain: ERPKPPFPELRKAVPGDRTAGGGPDSELQPQDKVSEHMLRLYDRYSTVQAARTPGSLEGGSQPWRPRLLREGNTVRSFRAAAAETLERKGLYIFNLTSLTKSENILSATLYFCIGELGNISLSCPVSGGCSHHAQRKHIQIDLSAWTLKFSRNQSQLLGHLSVDMAKSHRDIMSWLSKDITQFLRKAKENEEFLIGFNITSKGRQLPKRRLPFPEPYILVYANDAAISEPESVVSSLQGHRNFPTGTVPKWDSHIRAALSIERRKKRSTGVLLPLQNNELPGAEYQYKKDEVWEERKPYKTLQAQAPEKSKNKKKQRKGPHRKSQTLQFDEQTLKKARRK
binds: mature BMP-3 (human) [1] | mature BMP-3 (human) [2] | mature BMP-3 (human) [3] | mature BMP-3 (human) [4]

B2: mature BMP-3 (ligand)
chain: QWIEPRNCARRYLKVDFADIGWSEWIISPKSFDAYYCSGACQFPMPKSLKPSNHATIQSIVRAVGVVPGIPEPCCVPEKMSSLSILFFDENKNVVLKVYPNMTVESCACR
binds: Activin Receptor IIa [5] | Activin Receptor IIa [6]
